Data: publication PMC7141810, “UBP12 and UBP13 negatively regulate the activity of the ubiquitin-dependent peptidases DA1, DAR1 and DAR2” (eLife, 2020)
No constants are given. Whether binding was seen depends on the method and setting. Binding seen in cells or lysates may run through a third protein. Some binding calls cover weakened binding; strength is not graded here. Where a sequence is shown, tags or fusion partners need not be part of it.

T1: GFP-UBP12 (Arabidopsis thaliana) (UniProt Q9FPT1)
T1 sequence: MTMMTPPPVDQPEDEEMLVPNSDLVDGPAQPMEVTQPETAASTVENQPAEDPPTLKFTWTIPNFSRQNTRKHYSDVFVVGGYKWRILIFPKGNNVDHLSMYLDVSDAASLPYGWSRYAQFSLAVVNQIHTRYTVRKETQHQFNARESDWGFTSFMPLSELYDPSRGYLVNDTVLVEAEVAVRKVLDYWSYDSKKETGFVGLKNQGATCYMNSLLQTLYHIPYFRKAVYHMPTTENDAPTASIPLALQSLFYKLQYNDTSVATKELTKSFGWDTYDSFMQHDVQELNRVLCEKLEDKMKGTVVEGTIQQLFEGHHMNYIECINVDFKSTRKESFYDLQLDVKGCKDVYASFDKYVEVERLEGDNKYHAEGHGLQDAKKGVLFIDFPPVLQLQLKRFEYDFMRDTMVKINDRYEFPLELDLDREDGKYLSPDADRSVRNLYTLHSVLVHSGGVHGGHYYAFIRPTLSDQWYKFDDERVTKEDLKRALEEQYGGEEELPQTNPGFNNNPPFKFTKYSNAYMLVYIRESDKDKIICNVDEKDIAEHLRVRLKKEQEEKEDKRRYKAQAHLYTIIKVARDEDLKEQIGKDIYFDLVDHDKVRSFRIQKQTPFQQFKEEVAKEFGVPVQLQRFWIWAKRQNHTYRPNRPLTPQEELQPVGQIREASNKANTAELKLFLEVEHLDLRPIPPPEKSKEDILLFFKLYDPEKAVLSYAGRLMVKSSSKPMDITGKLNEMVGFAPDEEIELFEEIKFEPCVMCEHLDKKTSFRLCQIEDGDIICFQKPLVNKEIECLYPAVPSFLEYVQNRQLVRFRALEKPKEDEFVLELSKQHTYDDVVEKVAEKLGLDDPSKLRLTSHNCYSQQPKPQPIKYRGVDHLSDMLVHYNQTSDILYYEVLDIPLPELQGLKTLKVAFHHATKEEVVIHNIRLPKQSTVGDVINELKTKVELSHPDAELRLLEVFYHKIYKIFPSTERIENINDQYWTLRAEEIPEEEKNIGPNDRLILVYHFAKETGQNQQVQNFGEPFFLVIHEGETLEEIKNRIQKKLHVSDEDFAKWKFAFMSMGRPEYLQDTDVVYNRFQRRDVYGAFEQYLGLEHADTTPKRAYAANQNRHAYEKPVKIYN


Biological target: T1, GFP-UBP12 (Arabidopsis thaliana)
Test: co-IP; in vivo pull-down; RFP-tagged protein co-expressed with GFP-UBP12 or free GFP from the same Golden Gate vector in Arabidopsis cell suspension cultures; purified with anti-GFP beads; Western blot with anti-GFP and anti-RFP

| binding | Binder |
| --- | --- |
| binds | HIS-MBP-DA1 (natural protein, Arabidopsis thaliana, UniProt P0C7Q8 1-532, looked up, DA1, Arabidopsis thaliana, AT1G19270; source: E. coli BL21 (DE3), purified (NI-NTA agarose beads)) MGWFNKIFKGSNQRLRVGNNKHNHNVYYDNYPTASHDDEPSAADTDADNDEPHHTQEPSTSEDNTSNDQENEDIDRAIALSLLEENQEQTSISGKYSMPVDEDEQLARALQESMVVGNSPRHKSGSTYDNGNAYGAGDLYGNGHMYGGGNVYANGDIYYPRPITFQMDFRICAGCNMEIGHGRFLNCLNSLWHPECFRCYGCSQPISEYEFSTSGNYPFHKACYRERYHPKCDVCSHFIPTNHAGLIEYRAHPFWVQKYCPSHEHDATPRCCSCERMEPRNTRYVELNDGRKLCLECLDSAVMDTMQCQPLYLQIQNFYEGLNMKVEQEVPLLLVERQALNEAREGEKNGHYHMPETRGLCLSEEQTVSTVRKRSKHGTGKWAGNITEPYKLTRQCEVTAILILFGLPRLLTGSILAHEMMHAWMRLKGFRTLSQDVEEGICQVMAHKWLDAELAAGSTNSNAASSSSSSQGLKKGPRSQYERKLGEFFKHQIESDASPVYGDGFRAGRLAVHKYGLRKTLEHIQMTGRFPV |
| binds | HIS-MBP-DAR2 (natural protein, Arabidopsis thaliana, UniProt Q0WSN2 1-528, looked up, DAR2, Arabidopsis thaliana, AT2G39830; source: E. coli BL21 (DE3), purified (NI-NTA agarose beads)) MDSSSSSSSSSPSSSYGVARVSHISNPCIFGEVGSSSSSTYRDKKWKLMKWVSKLFKSGSNGGGSGAHTNHHPPQFQEDENMVFPLPPSSLDDRSRGARDKEELDRSISLSLADNTKRPHGYGWSMDNNRDFPRPFHGGLNPSSFIPPYEPSYQYRRRQRICGGCNSDIGSGNYLGCMGTFFHPECFRCHSCGYAITEHEFSLSGTKPYHKLCFKELTHPKCEVCHHFIPTNDAGLIEYRCHPFWNQKYCPSHEYDKTARCCSCERLESWDVRYYTLEDGRSLCLECMETAITDTGECQPLYHAIRDYYEGMYMKLDQQIPMLLVQREALNDAIVGEKNGYHHMPETRGLCLSEEQTVTSVLRRPRLGAHRLVGMRTQPQRLTRKCEVTAILVLYGLPRLLTGAILAHELMHGWLRLNGFRNLNPEVEEGICQVLSYMWLESEVLSDPSTRNLPSTSSVATSSSSSFSNKKGGKSNVEKKLGEFFKHQIAHDASPAYGGGFRAANAAACKYGLRRTLDHIRLTGTFPL |
